Data reported in article PMC10893700.
Substitutions are numbered along the chain they refer to. No constants are given. Whether binding was seen depends on the method and setting. In cells and extracts the contact can be indirect. Binding can be weak; no strength is given. Sequences can lack the tags named with a protein.

By UniProt entry, the sequences of proteins in these tests, tags left out. Where a name states a change or a piece, a line headed by the entry shows the natural chain unless it says otherwise.
UniProt A1ZAX4: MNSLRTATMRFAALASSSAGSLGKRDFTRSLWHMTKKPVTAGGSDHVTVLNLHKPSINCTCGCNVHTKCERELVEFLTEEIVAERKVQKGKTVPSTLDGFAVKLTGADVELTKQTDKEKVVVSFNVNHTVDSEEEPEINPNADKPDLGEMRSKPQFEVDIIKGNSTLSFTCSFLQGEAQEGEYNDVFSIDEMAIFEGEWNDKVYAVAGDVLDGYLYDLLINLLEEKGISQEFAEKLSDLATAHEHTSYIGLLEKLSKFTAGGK

How the values were obtained:
Experiment in all cases: co-IP; lysate of about 60 Drosophila heads co-expressing hCHCHD2-MYC and dp32-3xHA (GMR-GAL4), RIPA lysis buffer with protease inhibitor, EZview Red Anti-c-Myc Affinity Gel, 2 h at 4 °C; Western blot with anti-HA; n = 3
[1] = molecular target: T1, hCHCHD2-Arg145Gln-MYC (transgenic Drosophila) (human) (UniProt Q9Y6H1)
T1 sequence: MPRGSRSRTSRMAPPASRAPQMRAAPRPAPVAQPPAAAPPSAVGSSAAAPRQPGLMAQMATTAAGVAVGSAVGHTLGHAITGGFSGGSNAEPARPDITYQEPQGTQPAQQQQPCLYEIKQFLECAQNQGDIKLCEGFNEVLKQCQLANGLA

[2] = molecular target: T2, hCHCHD2-Thr61Ile-MYC (transgenic Drosophila) (human) (UniProt Q9Y6H1)
T2 sequence: T1 sequence with T61I, Q145R

[3] = molecular target: T3, wild type hCHCHD2-MYC (transgenic Drosophila) (human) (UniProt Q9Y6H1)
T3 sequence: T1 sequence with Q145R

binding [1]: binds
binding [2]: binds
binding [3]: binds
Substance: dp32-3xHA (from UniProt A1ZAX4)
